# Values quoted from earlier work as cited in PMC3583338 (Clinical pharmacology and therapeutics, 2008).
compound,measurement,value
CC(C)(C(=O)O)c1ccc(C(O)CCCN2CCC(C(O)(c3ccccc3)c3ccccc3)CC2)cc1 (stereo not shown) [fexofenadine],share of fexofenadine elimination by renal excretion,5-10%
